The values that follow come from PMC11589140.

Amino acid sequences for entries named in this document (tags omitted).
UniProt O14744: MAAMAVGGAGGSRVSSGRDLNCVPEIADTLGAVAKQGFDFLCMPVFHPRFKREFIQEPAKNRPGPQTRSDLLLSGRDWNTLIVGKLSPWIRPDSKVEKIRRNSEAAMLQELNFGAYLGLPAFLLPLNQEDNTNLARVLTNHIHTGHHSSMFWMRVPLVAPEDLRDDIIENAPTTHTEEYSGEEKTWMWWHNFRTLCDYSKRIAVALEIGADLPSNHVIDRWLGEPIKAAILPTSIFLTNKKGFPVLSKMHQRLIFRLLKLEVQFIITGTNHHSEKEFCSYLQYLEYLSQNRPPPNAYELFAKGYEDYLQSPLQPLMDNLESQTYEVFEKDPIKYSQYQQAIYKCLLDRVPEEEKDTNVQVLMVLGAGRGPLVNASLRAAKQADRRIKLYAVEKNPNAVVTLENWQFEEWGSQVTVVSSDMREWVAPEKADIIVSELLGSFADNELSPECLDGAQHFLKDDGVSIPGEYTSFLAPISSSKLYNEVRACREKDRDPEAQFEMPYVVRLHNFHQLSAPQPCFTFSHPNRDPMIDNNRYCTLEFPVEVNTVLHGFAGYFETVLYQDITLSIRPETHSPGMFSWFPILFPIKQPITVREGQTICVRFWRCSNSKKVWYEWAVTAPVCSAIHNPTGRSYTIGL

Numbering of substitutions follows the chain as printed. Results are given in words; binding and its absence hold for the method and conditions named. In cells and extracts the contact can be indirect. A yes stands for co-enrichment or nearness to the bait. Other partners may have been found. Where a sequence is shown, tags or fusion partners need not be part of it.

Test [1] has as its target T1, HA-tagged RUNX1T1 E146K (human) (UniProt Q06455).
T1 sequence: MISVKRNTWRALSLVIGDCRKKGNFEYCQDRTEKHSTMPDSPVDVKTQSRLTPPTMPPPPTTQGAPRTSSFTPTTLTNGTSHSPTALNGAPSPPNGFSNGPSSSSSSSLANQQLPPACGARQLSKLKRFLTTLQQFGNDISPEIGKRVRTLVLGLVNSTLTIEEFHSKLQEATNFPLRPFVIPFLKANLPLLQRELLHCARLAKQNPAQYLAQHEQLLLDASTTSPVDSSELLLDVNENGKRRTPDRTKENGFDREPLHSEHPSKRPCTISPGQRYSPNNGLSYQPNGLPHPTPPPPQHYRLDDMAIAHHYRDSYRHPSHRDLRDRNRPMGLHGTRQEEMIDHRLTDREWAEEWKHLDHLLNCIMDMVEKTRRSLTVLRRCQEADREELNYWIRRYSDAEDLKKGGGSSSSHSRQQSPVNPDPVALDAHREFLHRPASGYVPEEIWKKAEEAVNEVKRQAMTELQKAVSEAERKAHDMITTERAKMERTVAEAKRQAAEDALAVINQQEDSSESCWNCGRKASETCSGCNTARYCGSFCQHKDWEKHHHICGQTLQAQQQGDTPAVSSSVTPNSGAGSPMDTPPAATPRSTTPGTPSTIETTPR
The experiment in a line: affinity purification with mass spectrometry; fifty million HEK-293T cells expressing HA-RUNX1T1 (WT or mutants) lysed, anti-HA affinity resin, elution with 0.1 M glycine-HCl pH 2.0, trypsin digestion, nanoLC-MS/MS.

For test [2], the target named is T2, HA-tagged RUNX1T1 E163K (human) (UniProt Q06455).
T2 sequence: T1 sequence with K146E, E163K
Described as above.

Turning to “arginine methyltransferase PRMT5 (from UniProt O14744 1-637)”, the binding entry in test [1] and in test [2] was “binds” in each case.
